According to patent US20060287229A1, “Novel CD40 variants” (priority 2004, published 2006):
These are yes or no findings as the source states them, for the method shown. Some binding calls cover weakened binding; strength is not graded here. Where a sequence is shown, tags or fusion partners need not be part of it.

Protein sequences, listed by entry. Tags and fused reporters are not part of them.
UniProt P29965: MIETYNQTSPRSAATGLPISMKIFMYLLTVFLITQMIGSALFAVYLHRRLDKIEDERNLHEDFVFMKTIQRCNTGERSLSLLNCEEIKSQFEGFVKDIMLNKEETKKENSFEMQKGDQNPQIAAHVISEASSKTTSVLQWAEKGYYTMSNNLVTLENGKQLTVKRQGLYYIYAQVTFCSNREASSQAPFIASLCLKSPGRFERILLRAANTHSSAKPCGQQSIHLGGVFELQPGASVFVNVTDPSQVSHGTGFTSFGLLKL

How the values were obtained:
[1] = biological target: full length human CD154 on stably transfected mouse fibroblasts (human) (UniProt P29965); assay: flow cytometry on mouse fibroblasts expressing human CD154 (FIG. 17A)
[2] = biological target: full length human CD154 on stably transfected mouse fibroblasts (human) (UniProt P29965); assay: flow cytometry on mouse fibroblasts expressing human CD154, 1-50 ug/ml, detected with PE anti-CD40 EA-5

B1: Skipping 6-sCD40-Fc (Fc fusion, not shown: a dimerising Fc or GST)
chain: EPPTACREKQYLINSQCCSLCQPGQKLVSDCTEFTETECLPCGESEFLDTWNRETHCHQHKYCDPNLGLRVQQKGTSETDTICTCEEGWHCTSEACESCVLHRSCSPGFGVKQIATGVSDTICEPCPVGFFSNVSSAFEKCHPWTRSPGSAESPGGDPHHLRDPVCHPLGAGLYQKGGQEANQ
- binding [1]: binds
- binding [2]: binds
